Reference: PMC9637104
Results are given in words; binding and its absence hold for the method and conditions named. Binding seen in cells or lysates may run through a third protein. Some entries that bind do so weakly or less than the wild type.

Amino acid sequences for entries named in this document (tags omitted).
UniProt Q8C9H6: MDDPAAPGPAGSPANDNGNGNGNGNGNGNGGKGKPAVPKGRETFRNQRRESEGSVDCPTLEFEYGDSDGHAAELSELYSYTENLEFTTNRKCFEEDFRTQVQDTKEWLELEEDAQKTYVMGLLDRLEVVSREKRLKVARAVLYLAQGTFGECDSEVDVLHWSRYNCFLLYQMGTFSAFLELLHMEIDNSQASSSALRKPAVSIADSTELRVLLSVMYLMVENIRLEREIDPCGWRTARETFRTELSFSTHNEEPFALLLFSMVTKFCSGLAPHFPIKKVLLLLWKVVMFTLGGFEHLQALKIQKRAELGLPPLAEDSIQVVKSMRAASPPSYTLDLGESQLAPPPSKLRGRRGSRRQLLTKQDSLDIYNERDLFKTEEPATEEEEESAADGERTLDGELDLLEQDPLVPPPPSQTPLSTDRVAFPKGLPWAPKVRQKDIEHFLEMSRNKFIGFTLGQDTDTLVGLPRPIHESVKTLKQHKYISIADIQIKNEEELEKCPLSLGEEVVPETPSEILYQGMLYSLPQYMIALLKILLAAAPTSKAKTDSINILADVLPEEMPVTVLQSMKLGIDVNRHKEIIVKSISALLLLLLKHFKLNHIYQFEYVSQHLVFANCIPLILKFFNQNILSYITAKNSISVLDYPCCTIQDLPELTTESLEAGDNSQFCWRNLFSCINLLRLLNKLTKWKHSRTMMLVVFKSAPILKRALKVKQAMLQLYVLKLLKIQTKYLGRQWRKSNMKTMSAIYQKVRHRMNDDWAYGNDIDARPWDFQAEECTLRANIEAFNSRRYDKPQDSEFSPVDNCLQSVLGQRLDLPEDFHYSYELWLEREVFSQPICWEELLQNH

What was measured:
[1] = molecular target: Strip2 (mouse (endogenous in CGR8 ESCs)) (UniProt Q8C9H6); assay: proximity ligation; Duolink PLA on fixed, permeabilised Strip2+ 4-day EBs; primary antibodies to Strip2 and to the partner; Strip2-silenced cells as negative control
[2] = molecular target: Strip2 (mouse (endogenous in CGR8 ESCs)) (UniProt Q8C9H6); assay: proximity ligation; Duolink PLA on fixed, permeabilised Strip2+ 0-day ESCs and 1-day EBs; primary antibodies to Strip2 and to the partner; Strip2-silenced ESCs as negative control

binding [1]: binds
binding [2]: binds
B1: ZFP57 (protein, UniProt Q8C6P8 1-421)
chain: MAARKQSSQPSRTPVSYEDVAVSFTQEEWEYLTSTQKTLYQKVMSETFKNLTFVGSKKKPQEPSSDLQDKNEEQEKSSSCTGVFKGGPFFFCLTCGKCFKKNTFLFNHQFPVRSRRLAVTNPQSRKGKGYKAQHRGERPFFCNFCGKTYRDASGLSRHRRAHLGYRPRSCPECGKCFRDQSEVNRHLKVHQNKPAASNQAGNQASNQRLKSRVPPTTPRSQAPALKYVKVIQGPVARAKARNSGASTLNVRSNSITVVRSREKISCPYCHITFTMRTCLLTHLKIHFRRQPNQHFCCKESAHSSNTLRMQKIYTCPVCDSSFRGKESLLDHLCCQRPIRFSKCWEILGHLLGYLHEPVVLGNIFKVRDSSGKRMESRRRRRKRACTENPETEGLSGKGRVAPWEMEGATSPESPVTEEDSD
